{"source": "paper PMC4705532", "test_system": "elastase", "experiment": "resonance light scattering", "conditions": "2.0 uM methyl violet, 100-fold excess; 10 mM Tris pH 7.4, 2.0 uM methyl violet (duplex sensor), target binding 20 min at 37 °C; salt not stated; commercial protein", "note": "The exact form of at least one protein or probe is not confirmed. Negatives hold for the conditions tested.", "data": [{"sequence": "ATCTACGAATTCATCAGGGCTAAAGAGTGCAGAGTTACTTAGACCTTCCTCCGCAATACTCCCCCAGGTT (double strand) [Lapt≈Aapt duplex (with methyl violet)]", "values": [{"measurement": "binding result", "result": "no binding"}]}]}
